# Counter-ions that a name gives are not always drawn. This is one part of the list. Single values are uncertain, as repeats are few or missing.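 The strains were three CDC resistance-bank clinical C. auris isolates from clades III, IV and I, cultured in RPMI-1640 at 35°C. Growth was background-corrected OD600 versus vehicle-only wells on the same plate. A hit needed >50% inhibition in two or more strains plus a plate-corrected B-score exceeding 0.1.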
# Key:
# Test in all cases: growth relative to vehicle control (OD600 ratio) (fraction); higher = less inhibition
# Conditions in all cases: 24 h
# C. auris AR-384 = tested on: C. auris AR-384
# C. auris AR-386 = tested on: C. auris AR-386
# C. auris AR-387 = tested on: C. auris AR-387
SMILES,growth (C. auris AR-384; 1 µM),growth (C. auris AR-384; 10 µM),growth (C. auris AR-386; 1 µM),growth (C. auris AR-386; 10 µM),growth (C. auris AR-387; 1 µM),growth (C. auris AR-387; 10 µM)
CCOc1ccc2nc3cc(N)ccc3c(N)c2c1 [Ethacridine lactate monohydrate],0.94,0.97,0.73,0.62,0.72,0.7
CNC[C@H](O)[C@@H](O)[C@H](O)[C@H](O)CO [Meglumine],0.83,0.74,0.67,0.59,0.76,0.52
COc1cc(/C=C/C(=O)N2CCN(CC(=O)N3CCCC3)CC2)cc(OC)c1OC [Cinepazide maleate],0.92,1.02,0.91,1.06,1.15,1.35
Nc1ncnc2c1ncn2[C@@H]1O[C@H](CO)[C@@H](O)[C@@H]1O [Vidarabine],0.98,0.94,0.69,0.79,0.68,0.98
COC(=O)N/N=C/c1c[n+]([O-])c2ccccc2[n+]1[O-] [Carbadox],1.07,0.96,0.79,0.94,0.92,0.86
Clc1ccc(C(Cn2ccnc2)OCc2csc3c(Cl)cccc23)c(Cl)c1 (stereo not given) [Sertaconazole nitrate],0.49,0.29,0.67,0.74,0.05,0.02
C#CCN(C)Cc1ccccc1 [Pargyline hydrochloride],0.85,0.87,1.1,1.27,0.84,1.21
N#CC(c1ccc(Cl)cc1)c1c(Cl)cc(-n2ncc(=O)[nH]c2=O)cc1Cl (stereo not given) [Diclazuril],0.78,0.74,0.81,0.94,1.24,0.87
CCCCCCCCOc1ccccc1C(=O)Nc1ccc(C(=O)OCC[N+](C)(CC)CC)cc1 [Otilonium Bromide],0.96,1.32,1.16,0.6,0.69,0.96
CCCN[C@H]1CCc2nc(N)sc2C1 [Pramipexole 2HCl Monohydrate],0.68,0.78,0.98,0.71,0.91,0.72
CCN[C@@H]1C[C@H](N)[C@@H](O[C@H]2OC(CN)=CC[C@H]2N)[C@H](O)[C@H]1O[C@H]1OC[C@](C)(O)[C@H](NC)[C@H]1O [Netilmicin Sulfate],0.58,0.72,0.87,0.95,0.65,0.85
N[C@@H]1CONC1=O [D-Cycloserine],1.32,1.33,1.15,1.19,1.38,1.19
OC[C@H]1OC(O)[C@H](O)[C@@H](O)[C@@H]1O (stereo not given in full) [Dextrose],0.98,0.96,0.61,0.69,1,0.87
CCCCOc1cc(C(=O)OCCN(CC)CC)ccc1N [Oxybuprocaine HCl],1.2,1.36,1.46,1.09,1.15,0.98
Cc1cc(Nc2ncc(Cl)c(Nc3ccccc3S(=O)(=O)C(C)C)n2)c(OC(C)C)cc1C1CCNCC1 [Ceritinib (LDK378)],1.28,1.16,1.06,1,0.81,1.01
CC(C)(C)c1nc(-c2cccc(NS(=O)(=O)c3c(F)cccc3F)c2F)c(-c2ccnc(N)n2)s1,1.1,0.85,0.94,0.65,0.72,1.11
O=C(NC(Cc1cc(=O)[nH]c2ccccc12)C(=O)O)c1ccc(Cl)cc1 (stereo not given) [Rebamipide],1.03,0.73,0.78,1.18,0.7,0.8
CC(C(=O)O)c1ccc(-c2ccccc2)c(F)c1 (stereo not given) [Flurbiprofen],0.94,0.67,0.99,1.15,0.9,1.07
COc1ccc([C@]2(C#N)CC[C@@H](C(=O)O)CC2)cc1OC1CCCC1 [Cilomilast],0.77,0.71,0.94,1.05,0.83,0.9
C[C@H]1COc2c(N3CCN(C)CC3)c(F)cc3c(=O)c(C(=O)O)cn1c23 [Levofloxacin],0.5,1.09,0.94,1.15,0.83,1
CCc1oc2ccccc2c1C(=O)c1cc(Br)c(O)c(Br)c1 [Benzbromarone],0.94,0.8,1.09,0.8,0.74,0.54
N#CC1(c2ccc(NC(=O)c3cccnc3NCc3ccncc3)cc2)CCCC1 [Apatinib mesylate],1.02,1,1.07,1.07,0.78,0.84
CN1CCC(=C2c3ccccc3C=Cc3ccccc32)CC1 [Cyproheptadine HCl],1,1.31,1.07,1.27,0.92,1.06

# Molecules listed so far containing an NH in an aromatic ring (2):
SMILES,growth (C. auris AR-384; 1 µM),growth (C. auris AR-384; 10 µM),growth (C. auris AR-386; 1 µM),growth (C. auris AR-386; 10 µM),growth (C. auris AR-387; 1 µM),growth (C. auris AR-387; 10 µM)
N#CC(c1ccc(Cl)cc1)c1c(Cl)cc(-n2ncc(=O)[nH]c2=O)cc1Cl (stereo not given) [Diclazuril],0.78,0.74,0.81,0.94,1.24,0.87
O=C(NC(Cc1cc(=O)[nH]c2ccccc12)C(=O)O)c1ccc(Cl)cc1 (stereo not given) [Rebamipide],1.03,0.73,0.78,1.18,0.7,0.8

# Remaining list, next part.

SMILES,growth (C. auris AR-384; 1 µM),growth (C. auris AR-384; 10 µM),growth (C. auris AR-386; 1 µM),growth (C. auris AR-386; 10 µM),growth (C. auris AR-387; 1 µM),growth (C. auris AR-387; 10 µM)
Oc1ccc(/C=C/c2cc(O)cc(O)c2)cc1 [Resveratrol],0.77,1.16,0.97,0.89,1,1.06
COc1ccc2[nH]cc(CCNC(C)=O)c2c1 [Melatonin],1.06,1.43,1.28,0.79,0.94,0.94
CCN(CC)CCNC(=O)c1ccc(N)cc1 [Procainamide HCl],1.11,1.19,0.83,1.05,0.84,0.98
CC(C)CN(C[C@@H](O)[C@H](Cc1ccccc1)NC(=O)O[C@H]1CO[C@H]2OCC[C@H]21)S(=O)(=O)c1ccc(N)cc1 [Darunavir Ethanolate],1.19,0.85,1.02,0.86,0.7,0.98
NCC(=O)CCC(=O)O [5-Aminolevulinic acid HCl],0.9,1.03,1.24,1.06,1.22,1.29
CCCC(=O)OCOC(=O)C1=C(C)NC(C)=C(C(=O)OC)C1c1cccc(Cl)c1Cl (stereo not given) [Clevidipine Butyrate],1.33,1.19,1.22,1,0.9,0.81
Cc1ccc2c(Cl)cc(Cl)c(O)c2n1 [Chlorquinaldol],0.73,0.18,0.4,0.08,0.57,0.06
CC[C@H](C)C[C@H](C)CCCCCCCCC(=O)N[C@H]1C[C@@H](O)[C@@H](NCCN)NC(=O)[C@@H]2[C@@H](O)CCN2C(=O)[C@H]([C@H](O)CCN)NC(=O)[C@H]([C@H](O)[C@@H](O)c2ccc(O)cc2)NC(=O)[C@@H]2C[C@@H](O)CN2C(=O)[C@H]([C@@H](C)O)NC1=O [Caspofungin Acetate],0.78,0.87,0.44,0.75,0.56,0.25
CCC(=O)O[C@]1(C(=O)CCl)[C@@H](C)C[C@H]2[C@@H]3C[C@H](F)C4=CC(=O)C=C[C@]4(C)[C@@]3(F)[C@@H](O)C[C@@]21C [Halobetasol Propionate],0.91,1.22,1.23,1.28,1.09,1.12
NC(N)=O,0.86,0.75,0.89,0.72,0.9,0.86
C[C@H]1[C@H](NC(=O)/C(=N\OC(C)(C)C(=O)O)c2csc(N)n2)C(=O)N1S(=O)(=O)O [Aztreonam],0.75,1.27,1.15,0.82,0.88,0.9
CCN(C(=O)c1c(O)c2c(Cl)cccc2n(C)c1=O)c1ccccc1 [Laquinimod],1.03,0.89,0.71,0.9,0.6,0.99
CCN(CC)CC#CCOC(=O)C(O)(c1ccccc1)C1CCCCC1 (stereo not given) [Oxybutynin],0.56,0.41,0.97,0.64,0.79,0.69
Nc1ccc(S(=O)(=O)Nc2ncccn2)cc1 [Sulfadiazine],0.92,1.11,0.78,0.67,0.7,0.9
Oc1c(I)cc(I)c2cccnc12 [Diiodohydroxyquinoline],1.03,0.78,0.64,0.61,0.75,1.19
CN1C2=CC(=O)/C(=N\NC(N)=O)C=C2CC1S(=O)(=O)O (stereo not given) [Carbazochrome sodium sulfonate (AC-17)],0.97,0.63,0.81,0.74,0.65,0.63
CC(=O)OCC(COC(C)=O)OC(C)=O [Triacetin],0.83,0.84,0.68,1,0.81,0.81
C[C@]12CCC(=O)C=C1CC[C@@H]1[C@@H]2[C@@H](O)C[C@@]2(C)[C@H]1CC[C@]2(O)C(=O)CO [Hydrocortisone],0.99,1.35,1.35,1.45,1.12,1.31
Cc1nc(NC(=O)N2CCC[C@H]2C(N)=O)sc1-c1ccnc(C(C)(C)C(F)(F)F)c1 [Alpelisib (BYL719)],0.98,1.13,0.96,0.69,0.78,0.79
OC(CNCC(O)C1CCc2cc(F)ccc2O1)C1CCc2cc(F)ccc2O1 (stereo not given) [Nebivolol HCl],1.28,1.19,1.49,1.08,1.17,1.1
CC1=C(C(=O)O)N2C(=O)[C@@H](NC(=O)[C@H](N)c3ccc(O)cc3)[C@H]2SC1 [Cefadroxil hydrate],0.96,0.91,0.86,0.92,0.72,0.92
Cc1ccsc1C(=CCCN1CCC[C@@H](C(=O)O)C1)c1sccc1C [Tiagabine hydrochloride],0.76,1.03,0.95,0.89,0.82,1.05

# Reference: the supplement of paper PMC10470496
